The supplement of paper PMC10849652
Some of the results follow.

Chains of the proteins cited; added tags and fusions are not shown. Lines headed by an entry give the natural chain unless they say otherwise; changes in a name come on top.
UniProt P11234: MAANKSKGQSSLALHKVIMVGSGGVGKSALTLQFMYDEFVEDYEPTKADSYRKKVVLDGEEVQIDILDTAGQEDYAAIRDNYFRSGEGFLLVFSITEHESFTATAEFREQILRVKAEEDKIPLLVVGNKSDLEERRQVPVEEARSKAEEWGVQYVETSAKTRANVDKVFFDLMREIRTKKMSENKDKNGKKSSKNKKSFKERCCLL
UniProt Q96QF0: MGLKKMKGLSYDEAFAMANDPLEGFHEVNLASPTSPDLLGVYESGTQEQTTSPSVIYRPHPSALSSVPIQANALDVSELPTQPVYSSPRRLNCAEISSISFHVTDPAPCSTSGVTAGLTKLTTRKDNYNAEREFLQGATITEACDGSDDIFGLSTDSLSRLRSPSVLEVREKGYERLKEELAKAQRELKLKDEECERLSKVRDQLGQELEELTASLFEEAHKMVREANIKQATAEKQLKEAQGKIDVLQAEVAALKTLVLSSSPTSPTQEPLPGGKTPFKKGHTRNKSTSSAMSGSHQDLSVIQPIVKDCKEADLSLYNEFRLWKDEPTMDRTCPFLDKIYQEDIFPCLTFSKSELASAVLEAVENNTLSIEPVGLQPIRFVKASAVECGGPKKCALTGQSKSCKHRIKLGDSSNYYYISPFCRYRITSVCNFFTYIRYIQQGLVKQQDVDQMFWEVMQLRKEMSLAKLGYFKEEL
UniProt O60518: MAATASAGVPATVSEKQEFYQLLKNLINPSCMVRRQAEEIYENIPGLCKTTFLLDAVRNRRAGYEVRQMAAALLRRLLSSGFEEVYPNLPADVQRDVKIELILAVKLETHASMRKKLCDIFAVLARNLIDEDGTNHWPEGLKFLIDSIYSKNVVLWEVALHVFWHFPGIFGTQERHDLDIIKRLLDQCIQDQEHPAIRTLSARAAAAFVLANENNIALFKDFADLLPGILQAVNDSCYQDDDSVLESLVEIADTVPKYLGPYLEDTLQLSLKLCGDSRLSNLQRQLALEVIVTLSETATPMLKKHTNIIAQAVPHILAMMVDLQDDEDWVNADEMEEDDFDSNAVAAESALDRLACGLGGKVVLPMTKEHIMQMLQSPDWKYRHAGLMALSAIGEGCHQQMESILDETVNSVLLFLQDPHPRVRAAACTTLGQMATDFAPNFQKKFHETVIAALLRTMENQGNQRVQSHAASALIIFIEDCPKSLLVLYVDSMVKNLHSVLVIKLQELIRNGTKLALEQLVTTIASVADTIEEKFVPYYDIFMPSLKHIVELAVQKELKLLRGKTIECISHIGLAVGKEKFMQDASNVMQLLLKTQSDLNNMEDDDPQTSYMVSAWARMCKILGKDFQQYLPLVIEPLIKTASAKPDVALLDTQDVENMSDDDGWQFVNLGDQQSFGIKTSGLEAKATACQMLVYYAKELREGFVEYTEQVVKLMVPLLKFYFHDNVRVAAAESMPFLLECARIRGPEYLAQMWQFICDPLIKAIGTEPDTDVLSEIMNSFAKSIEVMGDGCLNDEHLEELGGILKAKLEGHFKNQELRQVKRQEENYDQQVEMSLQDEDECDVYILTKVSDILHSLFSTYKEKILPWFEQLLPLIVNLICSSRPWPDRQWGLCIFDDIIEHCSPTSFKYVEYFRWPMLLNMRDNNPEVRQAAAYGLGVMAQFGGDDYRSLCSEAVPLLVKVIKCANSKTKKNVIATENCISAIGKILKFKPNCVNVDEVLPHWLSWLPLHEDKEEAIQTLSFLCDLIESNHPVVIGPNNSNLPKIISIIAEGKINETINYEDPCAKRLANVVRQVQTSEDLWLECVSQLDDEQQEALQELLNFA
UniProt Q9NS91, whole entry, looked up: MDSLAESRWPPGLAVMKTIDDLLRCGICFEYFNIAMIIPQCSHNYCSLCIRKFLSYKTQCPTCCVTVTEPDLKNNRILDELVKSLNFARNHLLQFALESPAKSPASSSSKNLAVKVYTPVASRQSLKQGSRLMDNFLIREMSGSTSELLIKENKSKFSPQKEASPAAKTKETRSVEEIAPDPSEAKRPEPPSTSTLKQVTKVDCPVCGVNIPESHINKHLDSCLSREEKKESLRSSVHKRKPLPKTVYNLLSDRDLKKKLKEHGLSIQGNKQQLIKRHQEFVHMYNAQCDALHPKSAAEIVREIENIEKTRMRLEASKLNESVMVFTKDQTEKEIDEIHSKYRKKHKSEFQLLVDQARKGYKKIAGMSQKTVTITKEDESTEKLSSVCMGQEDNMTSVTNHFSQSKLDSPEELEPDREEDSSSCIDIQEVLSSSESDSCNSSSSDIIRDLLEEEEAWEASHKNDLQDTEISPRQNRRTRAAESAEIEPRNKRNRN
UniProt P43487, whole entry, looked up: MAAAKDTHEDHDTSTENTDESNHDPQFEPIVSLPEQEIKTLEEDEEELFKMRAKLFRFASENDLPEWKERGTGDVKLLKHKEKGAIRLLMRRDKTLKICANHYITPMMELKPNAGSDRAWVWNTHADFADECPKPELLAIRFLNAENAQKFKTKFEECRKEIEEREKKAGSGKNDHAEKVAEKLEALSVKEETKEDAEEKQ
UniProt Q9H0H5: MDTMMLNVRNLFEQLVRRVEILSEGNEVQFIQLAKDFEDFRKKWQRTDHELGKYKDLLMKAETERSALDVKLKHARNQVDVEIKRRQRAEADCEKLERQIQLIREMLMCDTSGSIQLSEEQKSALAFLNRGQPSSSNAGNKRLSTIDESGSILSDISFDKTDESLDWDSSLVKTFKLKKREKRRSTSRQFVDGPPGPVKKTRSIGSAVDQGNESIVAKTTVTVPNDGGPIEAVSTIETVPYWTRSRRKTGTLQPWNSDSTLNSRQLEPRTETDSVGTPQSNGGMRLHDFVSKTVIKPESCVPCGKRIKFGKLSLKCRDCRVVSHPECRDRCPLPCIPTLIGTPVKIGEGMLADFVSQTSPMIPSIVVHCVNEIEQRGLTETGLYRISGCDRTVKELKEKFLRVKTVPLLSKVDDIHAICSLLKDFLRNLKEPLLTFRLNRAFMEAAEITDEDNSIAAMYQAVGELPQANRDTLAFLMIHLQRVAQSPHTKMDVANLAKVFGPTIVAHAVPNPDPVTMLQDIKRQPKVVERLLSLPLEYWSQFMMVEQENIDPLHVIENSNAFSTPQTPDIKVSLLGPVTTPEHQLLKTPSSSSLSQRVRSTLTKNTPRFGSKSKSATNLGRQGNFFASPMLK
UniProt Q13636: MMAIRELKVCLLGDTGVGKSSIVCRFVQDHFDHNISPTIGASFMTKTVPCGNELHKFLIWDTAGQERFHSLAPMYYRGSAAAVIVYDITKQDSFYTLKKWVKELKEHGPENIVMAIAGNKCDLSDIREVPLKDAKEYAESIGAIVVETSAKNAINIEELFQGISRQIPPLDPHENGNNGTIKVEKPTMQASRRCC
UniProt Q9ULC3: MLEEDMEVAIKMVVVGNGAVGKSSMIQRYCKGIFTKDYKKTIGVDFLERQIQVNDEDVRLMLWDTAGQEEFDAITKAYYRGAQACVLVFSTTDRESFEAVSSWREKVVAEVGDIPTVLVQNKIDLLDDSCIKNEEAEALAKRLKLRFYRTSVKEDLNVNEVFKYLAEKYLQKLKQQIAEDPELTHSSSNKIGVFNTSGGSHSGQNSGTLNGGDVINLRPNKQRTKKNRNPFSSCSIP
UniProt P09417: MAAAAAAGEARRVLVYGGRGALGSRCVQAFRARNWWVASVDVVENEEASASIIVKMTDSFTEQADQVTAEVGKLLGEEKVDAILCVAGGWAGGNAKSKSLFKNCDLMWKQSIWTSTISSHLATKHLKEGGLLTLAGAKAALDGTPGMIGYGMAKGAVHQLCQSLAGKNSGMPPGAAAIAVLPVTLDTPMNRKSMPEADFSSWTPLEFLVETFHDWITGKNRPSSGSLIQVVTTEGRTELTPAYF
UniProt Q9ULZ3, whole entry, looked up: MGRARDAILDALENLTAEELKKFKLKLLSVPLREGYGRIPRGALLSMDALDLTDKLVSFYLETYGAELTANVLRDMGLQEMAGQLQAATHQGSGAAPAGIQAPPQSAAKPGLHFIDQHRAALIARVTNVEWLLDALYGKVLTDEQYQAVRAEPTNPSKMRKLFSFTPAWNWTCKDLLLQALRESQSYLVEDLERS
UniProt P61026: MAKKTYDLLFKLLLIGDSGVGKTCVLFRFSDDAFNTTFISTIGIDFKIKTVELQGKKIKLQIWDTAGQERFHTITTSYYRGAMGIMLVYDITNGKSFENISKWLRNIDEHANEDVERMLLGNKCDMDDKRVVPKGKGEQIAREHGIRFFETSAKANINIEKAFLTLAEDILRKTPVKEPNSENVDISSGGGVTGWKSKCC
UniProt Q9Y3P9: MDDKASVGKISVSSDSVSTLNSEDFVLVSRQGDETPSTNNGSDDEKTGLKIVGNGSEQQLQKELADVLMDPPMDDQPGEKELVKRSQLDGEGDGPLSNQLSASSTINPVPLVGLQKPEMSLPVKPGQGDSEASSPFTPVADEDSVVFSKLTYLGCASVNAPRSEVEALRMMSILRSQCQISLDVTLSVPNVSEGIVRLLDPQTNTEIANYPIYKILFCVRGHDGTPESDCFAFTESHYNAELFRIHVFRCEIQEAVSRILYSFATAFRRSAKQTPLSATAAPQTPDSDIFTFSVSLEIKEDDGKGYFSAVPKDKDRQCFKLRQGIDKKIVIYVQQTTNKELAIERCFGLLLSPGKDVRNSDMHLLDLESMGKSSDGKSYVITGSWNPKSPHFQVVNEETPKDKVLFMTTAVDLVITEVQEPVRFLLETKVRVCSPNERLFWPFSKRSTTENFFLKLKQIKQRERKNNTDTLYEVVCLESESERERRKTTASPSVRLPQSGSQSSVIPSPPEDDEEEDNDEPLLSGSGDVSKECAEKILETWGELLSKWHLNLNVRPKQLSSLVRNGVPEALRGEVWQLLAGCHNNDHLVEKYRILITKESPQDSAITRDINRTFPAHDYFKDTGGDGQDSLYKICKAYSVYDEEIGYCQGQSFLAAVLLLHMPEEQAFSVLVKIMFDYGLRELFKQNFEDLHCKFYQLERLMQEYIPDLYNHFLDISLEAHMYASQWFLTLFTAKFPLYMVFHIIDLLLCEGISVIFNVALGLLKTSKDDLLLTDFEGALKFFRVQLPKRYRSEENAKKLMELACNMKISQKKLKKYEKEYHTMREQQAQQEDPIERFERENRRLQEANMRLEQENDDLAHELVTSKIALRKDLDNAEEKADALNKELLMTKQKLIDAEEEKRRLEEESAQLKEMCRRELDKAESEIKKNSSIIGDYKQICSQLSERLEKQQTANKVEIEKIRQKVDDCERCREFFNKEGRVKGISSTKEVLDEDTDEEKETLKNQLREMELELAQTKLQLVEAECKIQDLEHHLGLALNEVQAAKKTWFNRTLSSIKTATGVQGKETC
UniProt P46060: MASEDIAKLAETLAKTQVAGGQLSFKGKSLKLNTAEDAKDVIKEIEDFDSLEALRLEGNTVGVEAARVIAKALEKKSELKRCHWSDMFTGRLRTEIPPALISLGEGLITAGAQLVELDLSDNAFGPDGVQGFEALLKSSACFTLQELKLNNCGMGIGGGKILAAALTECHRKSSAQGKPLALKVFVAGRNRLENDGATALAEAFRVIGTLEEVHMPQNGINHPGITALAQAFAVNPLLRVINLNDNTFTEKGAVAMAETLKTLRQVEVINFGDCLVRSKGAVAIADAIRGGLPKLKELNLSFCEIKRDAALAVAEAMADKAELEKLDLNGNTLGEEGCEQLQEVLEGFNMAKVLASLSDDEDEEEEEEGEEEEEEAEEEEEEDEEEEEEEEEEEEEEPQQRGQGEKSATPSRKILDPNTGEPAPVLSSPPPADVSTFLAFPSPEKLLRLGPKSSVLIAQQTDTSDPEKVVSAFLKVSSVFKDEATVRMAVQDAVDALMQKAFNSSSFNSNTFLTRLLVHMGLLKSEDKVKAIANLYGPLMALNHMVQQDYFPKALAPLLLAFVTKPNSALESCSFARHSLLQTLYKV
UniProt Q15907: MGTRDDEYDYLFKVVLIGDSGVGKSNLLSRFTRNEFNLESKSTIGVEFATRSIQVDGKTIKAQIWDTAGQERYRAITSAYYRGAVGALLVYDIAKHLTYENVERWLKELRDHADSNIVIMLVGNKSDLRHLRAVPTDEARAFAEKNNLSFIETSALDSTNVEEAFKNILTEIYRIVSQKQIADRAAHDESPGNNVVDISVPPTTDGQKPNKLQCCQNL
UniProt Q9Y3L5: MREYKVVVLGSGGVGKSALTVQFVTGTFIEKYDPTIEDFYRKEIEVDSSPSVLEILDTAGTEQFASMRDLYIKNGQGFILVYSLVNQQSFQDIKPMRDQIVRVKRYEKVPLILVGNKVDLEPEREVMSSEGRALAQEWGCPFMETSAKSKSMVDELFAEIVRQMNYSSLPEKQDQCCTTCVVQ
UniProt P62820, whole entry, looked up: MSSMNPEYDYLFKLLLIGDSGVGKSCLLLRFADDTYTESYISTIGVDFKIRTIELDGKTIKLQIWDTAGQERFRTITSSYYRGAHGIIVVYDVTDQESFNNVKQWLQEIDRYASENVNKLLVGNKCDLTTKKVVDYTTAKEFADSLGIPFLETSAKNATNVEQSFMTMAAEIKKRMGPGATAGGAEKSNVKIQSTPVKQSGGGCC

Compound: O=C1NC(=O)C(c2cnc3ccccn23)=C1c1cn2c3c(cc(F)cc13)CN(C(=O)N1CCCCC1)CC2
Test: log2 fold change, soluble protein after heating vs DMSO (PISA); higher = thermal stabilisation; K562 lysate, 10 uM; active = over 0.2 and 3.5 SD of the protein, either way, in both replicates (recomputed)
Procedure, shortened: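 A 30 min treatment with 10 μM compound was applied to crude K562 extract at 1 mg/mL protein in PBS pH 7.4 with 1 mM MgCl2. Heating for 3 min spanned 48°C-58°C, after which aliquots were pooled, adjusted to 0.5% NP-40 at 4°C and spun at 21,000xg for 90 min. TMTpro 16plex LC-MS/MS of the supernatant, with channel sums equalised, gave values recorded as log-two fold change in thermal stability against solvent controls, from duplicates.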

log2 fold change, inactive:
RALB isoform 2 (UniProt P11234) -0.009, RAI14 isoform 2 (UniProt Q9P0K7) 0.015, RAB6D (UniProt Q53S08) -0.011, RALGAPB (UniProt Q86X10) -0.017, RAB3IP (UniProt Q96QF0) -0.039, RANBP6 (UniProt O60518) 0.041, RAD18 (UniProt Q9NS91) -0.033, RANBP1 (UniProt P43487) -0.019, RACGAP1 (UniProt Q9H0H5) 0, RAB28 (UniProt P51157) -0.06, RAB31 (UniProt Q13636) -0.005, RAB23 (UniProt Q9ULC3) -0.073, RAP2B (UniProt P61225) 0.005, QDPR (UniProt P09417) -0.02, RAB3D (UniProt O95716) 0.038, PYCARD (UniProt Q9ULZ3) -0.046, RAB10 (UniProt P61026) -0.006, RABGAP1 (UniProt Q9Y3P9) -0.004, RANGAP1 (UniProt P46060) 0.003, RAB11B (UniProt Q15907) -0.02, RAPGEF1 isoform 3 (UniProt Q13905) -0.046, RAP2C (UniProt Q9Y3L5) 0.058, RAB1A (UniProt P62820) -0.027
